Assay results published in PubChem BioAssay AID819 (Columbia University Molecular Screening Center, 2007).
The campaign covered roughly 94,000 compounds. About 280 (0.3%) were called active. Inconclusive results, whose numbers are uncertain, are shown with a selection of clear calls.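 How the source made its calls: active means activation above 40%, about the mean plus 3 SD, also judged a hit on visual image review; inconclusive means activation above 40% but not a hit on visual review; inactive means activation not above 40% and no visual hit.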

Assay: enhancers of NFkB p65 translocation in HUVEC – imaging, IL-1B stimulus, high-content imaging, primary screen (AID 819);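 further: percent activation is computed from the nuclear over cytoplasmic p65 intensity ratio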
Settings: HUVEC IL-1B NFkB p65 nuclear translocation imaging; at 2 µM; hits give high values
With `Clc1cc(Cl)c2nc(N3CCCC3)sc2c1` the activation was inconclusive: 57.5%. For `CCOCCCn1c(C)nc2c(c1=O)c1nc3ccccc3nc1n2-c1ccc(C)cc1`, the activation was inconclusive: 40.2%. With `CN1C(=O)C2(OCC(COc3ccc(Cl)cc3)O2)c2ccccc21` (stereo not given) the activation was inactive: 21%. With `CC(C)NS(=O)(=O)c1ccc(OCC(=O)Nc2cccc3ccccc23)cc1` the activation was inactive: 21.1%. In the case of `CCCCCCOC(=O)C(C#N)c1nc2ccccc2nc1N1CCOCC1` (stereo not given), the activation was inconclusive: 66.8%. With `Cc1ccc(C)c(N2CCN(S(=O)(=O)c3ccc4c(c3)OCCO4)CC2)c1` the activation was inactive: 5.91%. With `COc1ccc(NC(=O)C2CCCN2S(=O)(=O)c2cccc3cccnc23)c(OC)c1` (stereo not given) the activation was active: 74.7%. In the case of `CCOC(=O)c1c(C)cc(C)n2c1nc1ccccc12`, the activation was inactive: 2.79%. For `Cc1ccc(S(=O)(=O)Cn2nnnc2C(c2ccccn2)N2CCN(c3ccccc3)CC2)cc1` (stereo not given), the activation was inactive: -2.08%. For `CN(C)c1ccc(CN(C(=O)COc2ccc(F)cc2)C2CCS(=O)(=O)C2)cc1` (stereo not given), the activation was inconclusive: 51.9%. In the case of `CN(C)CCN(Cc1ccccc1)c1ccnc(N(C)C)c1C#N`, the activation was inconclusive: 52.9%. With `COc1cc(C(=O)N2CCN(c3ccc([N+](=O)[O-])cc3)CC2)ccc1OCc1c(C)noc1C` the activation was inconclusive: 40.3%. In the case of `CCOC(=O)C1=C(C)N(c2ccccc2)C(=O)C1CC(=O)O` (stereo not given), the activation was inactive: -10.1%. In the case of `CCC(C)(C)NC(=O)Cc1ccccc1OC`, the activation was inactive: 4.46%. With `Cc1[nH][nH]c(=O)c1C(c1ccc(-c2ccc(Cl)cc2)o1)c1c(C)[nH][nH]c1=O` the activation was active: 49.6%. For `COC(=O)c1sc2nc3c(cc2c1N)C(=O)CC(C)(C)C3`, the activation was inconclusive: 57.8%. In the case of `Cc1c(Cl)c(C(F)(F)F)nn1CC(=O)N1CCSCC1`, the activation was inactive: 11.6%. For `C=CCn1c(=N)n(CC(=O)OC)c2ccccc21`, the activation was inconclusive: 52.8%. In the case of `Cc1nc(Nc2ccc3c(c2)OCCO3)c2oc3ccccc3c2n1`, the activation was active: 87.1%. In the case of `O=C1C(Oc2ccccc2)C(c2cccs2)N1Cc1ccc2c(c1)OCO2` (stereo not given), the activation was inconclusive: 55.2%. With `CC(C)CC(c1nnnn1Cc1ccccc1)N1CCC(C(N)=O)CC1` (stereo not given) the activation was active: 58%. In the case of `CCC(=O)N1CCc2cc(S(=O)(=O)NC(C(=O)Nc3cccc(C)n3)C(C)C)ccc21` (stereo not given), the activation was inconclusive: 51%. In the case of `O=C(CSCc1ccco1)c1ccc(Cl)s1`, the activation was inconclusive: 43.9%. In the case of `O=C(CN1C(=O)CSC1=O)Nc1ccccc1F`, the activation was inconclusive: 48.8%. For `COc1ccccc1N1CCN(C(c2ccccc2Cl)c2nnnn2C(C)(C)C)CC1` (stereo not given), the activation was inactive: 1.42%.
